From paper doi:10.1101/2021.02.12.430913

Chains of the proteins cited; added tags and fusions are not shown.
UniProt O09106: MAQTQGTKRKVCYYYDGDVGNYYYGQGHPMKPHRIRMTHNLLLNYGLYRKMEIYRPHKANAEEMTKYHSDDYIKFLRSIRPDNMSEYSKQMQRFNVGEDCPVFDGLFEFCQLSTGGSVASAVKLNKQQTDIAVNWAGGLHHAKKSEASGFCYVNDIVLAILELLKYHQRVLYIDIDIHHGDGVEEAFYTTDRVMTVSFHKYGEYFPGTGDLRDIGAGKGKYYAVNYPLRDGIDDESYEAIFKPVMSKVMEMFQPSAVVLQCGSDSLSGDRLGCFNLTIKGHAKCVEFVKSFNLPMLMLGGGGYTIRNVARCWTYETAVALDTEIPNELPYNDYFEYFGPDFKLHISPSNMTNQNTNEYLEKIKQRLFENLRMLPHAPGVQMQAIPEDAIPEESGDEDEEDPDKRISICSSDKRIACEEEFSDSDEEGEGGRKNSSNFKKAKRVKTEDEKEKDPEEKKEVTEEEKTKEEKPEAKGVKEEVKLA

Biological target: histone deacetylase 1 (HDAC1) (mouse (endogenous in testis)) (UniProt O09106)
Assay: co-IP

- binding: binds
Substance: potassium channel tetramerization domain containing 19 (KCTD19) (from UniProt Q562E2-2)

These are yes or no findings as the source states them, for the method shown. In cells and extracts the contact can be indirect. A result given as binding can be weak or reduced; the word gives no strength.
